Experimental data taken from the supplement of paper PMC12819154, “High-throughput peptide-centric local stability assay extends protein–ligand identification to membrane proteins, tissues and bacteria” (Nature Structural & Molecular Biology, 2025).
This is one part of the list. Most entries show no effect beyond the scatter of the controls.

By UniProt entry, the sequences of proteins in these tests, tags left out. Where a name states a change or a piece, a line headed by the entry shows the natural chain unless it says otherwise.
UniProt Q61595: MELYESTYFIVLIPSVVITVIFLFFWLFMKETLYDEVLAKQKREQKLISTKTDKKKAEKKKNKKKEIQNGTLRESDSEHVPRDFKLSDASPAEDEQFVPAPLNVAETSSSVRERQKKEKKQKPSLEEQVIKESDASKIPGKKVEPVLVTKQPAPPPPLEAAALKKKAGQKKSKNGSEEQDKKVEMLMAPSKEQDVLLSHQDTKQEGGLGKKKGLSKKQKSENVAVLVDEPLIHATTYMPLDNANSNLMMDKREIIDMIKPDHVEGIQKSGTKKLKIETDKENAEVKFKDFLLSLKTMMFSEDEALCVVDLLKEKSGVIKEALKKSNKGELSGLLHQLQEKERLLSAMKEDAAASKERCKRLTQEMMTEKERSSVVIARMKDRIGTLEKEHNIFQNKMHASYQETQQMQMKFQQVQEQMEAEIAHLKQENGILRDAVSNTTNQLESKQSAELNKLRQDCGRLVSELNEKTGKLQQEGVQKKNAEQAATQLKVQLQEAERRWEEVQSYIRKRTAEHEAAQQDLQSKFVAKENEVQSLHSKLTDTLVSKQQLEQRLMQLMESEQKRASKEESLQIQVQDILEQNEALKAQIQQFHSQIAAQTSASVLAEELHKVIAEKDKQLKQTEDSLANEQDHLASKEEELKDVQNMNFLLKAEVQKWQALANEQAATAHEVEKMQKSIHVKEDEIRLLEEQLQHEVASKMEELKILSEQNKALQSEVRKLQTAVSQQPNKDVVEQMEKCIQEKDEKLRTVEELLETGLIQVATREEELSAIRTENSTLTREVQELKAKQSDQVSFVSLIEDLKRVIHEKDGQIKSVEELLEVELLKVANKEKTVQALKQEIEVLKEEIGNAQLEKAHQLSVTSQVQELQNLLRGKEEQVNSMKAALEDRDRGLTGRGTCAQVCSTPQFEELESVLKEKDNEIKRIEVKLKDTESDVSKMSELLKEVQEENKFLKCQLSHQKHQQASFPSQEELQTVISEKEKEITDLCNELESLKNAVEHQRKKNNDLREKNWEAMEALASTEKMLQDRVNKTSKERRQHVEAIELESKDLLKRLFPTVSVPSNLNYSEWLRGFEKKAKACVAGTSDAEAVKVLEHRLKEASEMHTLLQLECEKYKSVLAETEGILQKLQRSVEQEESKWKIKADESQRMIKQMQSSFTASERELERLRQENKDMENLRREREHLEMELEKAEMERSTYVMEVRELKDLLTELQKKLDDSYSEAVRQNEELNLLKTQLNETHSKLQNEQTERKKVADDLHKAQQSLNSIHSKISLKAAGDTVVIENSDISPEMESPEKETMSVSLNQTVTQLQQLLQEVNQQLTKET
UniProt Q61249: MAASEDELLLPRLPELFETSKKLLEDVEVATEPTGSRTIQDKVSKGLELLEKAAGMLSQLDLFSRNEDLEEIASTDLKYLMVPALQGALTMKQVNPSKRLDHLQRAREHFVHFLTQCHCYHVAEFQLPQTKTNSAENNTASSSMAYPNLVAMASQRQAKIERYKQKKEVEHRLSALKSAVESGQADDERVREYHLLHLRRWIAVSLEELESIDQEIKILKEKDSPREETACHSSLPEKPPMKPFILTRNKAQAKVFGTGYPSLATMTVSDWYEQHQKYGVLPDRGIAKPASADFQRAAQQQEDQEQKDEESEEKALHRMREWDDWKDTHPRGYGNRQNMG
UniProt Q60770: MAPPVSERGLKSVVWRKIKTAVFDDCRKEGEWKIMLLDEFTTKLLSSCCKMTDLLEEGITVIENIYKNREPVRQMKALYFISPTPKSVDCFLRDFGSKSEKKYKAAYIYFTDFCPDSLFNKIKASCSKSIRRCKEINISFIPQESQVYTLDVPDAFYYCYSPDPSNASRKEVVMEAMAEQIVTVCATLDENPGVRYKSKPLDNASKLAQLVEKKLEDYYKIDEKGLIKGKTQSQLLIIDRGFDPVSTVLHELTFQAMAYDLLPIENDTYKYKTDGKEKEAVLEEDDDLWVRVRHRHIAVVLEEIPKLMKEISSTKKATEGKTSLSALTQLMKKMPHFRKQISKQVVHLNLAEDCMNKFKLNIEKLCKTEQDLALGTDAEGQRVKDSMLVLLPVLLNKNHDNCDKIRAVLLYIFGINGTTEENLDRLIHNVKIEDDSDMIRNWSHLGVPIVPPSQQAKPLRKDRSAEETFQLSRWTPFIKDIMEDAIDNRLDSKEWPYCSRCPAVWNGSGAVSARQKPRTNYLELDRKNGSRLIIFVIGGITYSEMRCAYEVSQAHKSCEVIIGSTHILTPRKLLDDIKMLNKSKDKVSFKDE
UniProt Q6GQS1: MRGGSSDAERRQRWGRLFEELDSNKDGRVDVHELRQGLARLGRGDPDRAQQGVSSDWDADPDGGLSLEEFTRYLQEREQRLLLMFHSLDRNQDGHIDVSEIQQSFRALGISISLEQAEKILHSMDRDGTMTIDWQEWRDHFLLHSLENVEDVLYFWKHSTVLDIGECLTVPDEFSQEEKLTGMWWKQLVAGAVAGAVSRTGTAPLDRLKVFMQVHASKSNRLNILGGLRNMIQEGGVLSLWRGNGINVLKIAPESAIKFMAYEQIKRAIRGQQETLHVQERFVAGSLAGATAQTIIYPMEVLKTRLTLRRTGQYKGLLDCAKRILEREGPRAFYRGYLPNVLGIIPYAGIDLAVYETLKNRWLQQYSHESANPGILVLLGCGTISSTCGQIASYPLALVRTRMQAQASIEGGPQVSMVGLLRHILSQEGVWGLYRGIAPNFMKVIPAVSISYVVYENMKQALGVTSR
UniProt Q64345: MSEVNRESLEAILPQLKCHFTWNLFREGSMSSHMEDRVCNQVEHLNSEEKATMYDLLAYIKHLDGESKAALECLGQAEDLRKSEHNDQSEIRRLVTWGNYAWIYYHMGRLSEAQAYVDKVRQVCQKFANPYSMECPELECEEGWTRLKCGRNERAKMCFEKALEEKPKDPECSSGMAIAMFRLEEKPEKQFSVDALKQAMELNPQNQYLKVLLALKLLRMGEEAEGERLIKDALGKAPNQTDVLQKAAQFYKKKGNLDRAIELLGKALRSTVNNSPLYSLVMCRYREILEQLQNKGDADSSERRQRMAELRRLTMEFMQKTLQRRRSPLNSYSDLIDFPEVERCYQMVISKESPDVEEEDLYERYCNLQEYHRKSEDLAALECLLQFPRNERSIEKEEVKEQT
UniProt Q64521: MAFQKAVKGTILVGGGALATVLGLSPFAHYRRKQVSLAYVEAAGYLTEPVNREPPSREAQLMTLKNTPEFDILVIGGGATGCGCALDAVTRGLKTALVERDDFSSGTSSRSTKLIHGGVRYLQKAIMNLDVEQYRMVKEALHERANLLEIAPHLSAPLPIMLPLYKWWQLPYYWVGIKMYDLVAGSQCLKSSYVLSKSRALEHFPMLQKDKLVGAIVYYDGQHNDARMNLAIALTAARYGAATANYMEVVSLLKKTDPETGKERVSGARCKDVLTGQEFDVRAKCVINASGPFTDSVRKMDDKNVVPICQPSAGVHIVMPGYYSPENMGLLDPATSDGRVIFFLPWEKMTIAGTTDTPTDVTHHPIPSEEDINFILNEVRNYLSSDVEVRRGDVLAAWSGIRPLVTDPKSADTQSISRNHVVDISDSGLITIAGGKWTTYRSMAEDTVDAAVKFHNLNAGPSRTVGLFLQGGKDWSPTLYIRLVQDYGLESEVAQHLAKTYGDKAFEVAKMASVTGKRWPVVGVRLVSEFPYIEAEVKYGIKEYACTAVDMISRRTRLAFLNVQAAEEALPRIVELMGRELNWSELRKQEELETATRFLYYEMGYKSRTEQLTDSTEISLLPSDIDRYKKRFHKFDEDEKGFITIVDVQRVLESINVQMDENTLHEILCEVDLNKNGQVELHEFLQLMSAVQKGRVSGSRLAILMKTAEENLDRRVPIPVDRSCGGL
UniProt Q64685: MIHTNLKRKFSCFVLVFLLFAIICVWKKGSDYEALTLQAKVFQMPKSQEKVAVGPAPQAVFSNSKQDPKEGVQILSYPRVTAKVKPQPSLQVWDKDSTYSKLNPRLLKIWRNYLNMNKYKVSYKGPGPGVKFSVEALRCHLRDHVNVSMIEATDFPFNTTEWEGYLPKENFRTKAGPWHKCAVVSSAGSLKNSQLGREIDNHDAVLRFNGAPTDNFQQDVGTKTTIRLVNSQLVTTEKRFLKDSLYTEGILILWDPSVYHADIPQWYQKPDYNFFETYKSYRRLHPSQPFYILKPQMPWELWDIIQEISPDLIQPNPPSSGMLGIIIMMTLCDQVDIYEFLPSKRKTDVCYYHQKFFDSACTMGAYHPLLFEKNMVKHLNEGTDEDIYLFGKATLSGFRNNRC
UniProt Q62425: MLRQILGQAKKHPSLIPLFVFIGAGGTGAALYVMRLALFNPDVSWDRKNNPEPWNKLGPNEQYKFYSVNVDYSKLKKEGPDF
UniProt Q67FY2: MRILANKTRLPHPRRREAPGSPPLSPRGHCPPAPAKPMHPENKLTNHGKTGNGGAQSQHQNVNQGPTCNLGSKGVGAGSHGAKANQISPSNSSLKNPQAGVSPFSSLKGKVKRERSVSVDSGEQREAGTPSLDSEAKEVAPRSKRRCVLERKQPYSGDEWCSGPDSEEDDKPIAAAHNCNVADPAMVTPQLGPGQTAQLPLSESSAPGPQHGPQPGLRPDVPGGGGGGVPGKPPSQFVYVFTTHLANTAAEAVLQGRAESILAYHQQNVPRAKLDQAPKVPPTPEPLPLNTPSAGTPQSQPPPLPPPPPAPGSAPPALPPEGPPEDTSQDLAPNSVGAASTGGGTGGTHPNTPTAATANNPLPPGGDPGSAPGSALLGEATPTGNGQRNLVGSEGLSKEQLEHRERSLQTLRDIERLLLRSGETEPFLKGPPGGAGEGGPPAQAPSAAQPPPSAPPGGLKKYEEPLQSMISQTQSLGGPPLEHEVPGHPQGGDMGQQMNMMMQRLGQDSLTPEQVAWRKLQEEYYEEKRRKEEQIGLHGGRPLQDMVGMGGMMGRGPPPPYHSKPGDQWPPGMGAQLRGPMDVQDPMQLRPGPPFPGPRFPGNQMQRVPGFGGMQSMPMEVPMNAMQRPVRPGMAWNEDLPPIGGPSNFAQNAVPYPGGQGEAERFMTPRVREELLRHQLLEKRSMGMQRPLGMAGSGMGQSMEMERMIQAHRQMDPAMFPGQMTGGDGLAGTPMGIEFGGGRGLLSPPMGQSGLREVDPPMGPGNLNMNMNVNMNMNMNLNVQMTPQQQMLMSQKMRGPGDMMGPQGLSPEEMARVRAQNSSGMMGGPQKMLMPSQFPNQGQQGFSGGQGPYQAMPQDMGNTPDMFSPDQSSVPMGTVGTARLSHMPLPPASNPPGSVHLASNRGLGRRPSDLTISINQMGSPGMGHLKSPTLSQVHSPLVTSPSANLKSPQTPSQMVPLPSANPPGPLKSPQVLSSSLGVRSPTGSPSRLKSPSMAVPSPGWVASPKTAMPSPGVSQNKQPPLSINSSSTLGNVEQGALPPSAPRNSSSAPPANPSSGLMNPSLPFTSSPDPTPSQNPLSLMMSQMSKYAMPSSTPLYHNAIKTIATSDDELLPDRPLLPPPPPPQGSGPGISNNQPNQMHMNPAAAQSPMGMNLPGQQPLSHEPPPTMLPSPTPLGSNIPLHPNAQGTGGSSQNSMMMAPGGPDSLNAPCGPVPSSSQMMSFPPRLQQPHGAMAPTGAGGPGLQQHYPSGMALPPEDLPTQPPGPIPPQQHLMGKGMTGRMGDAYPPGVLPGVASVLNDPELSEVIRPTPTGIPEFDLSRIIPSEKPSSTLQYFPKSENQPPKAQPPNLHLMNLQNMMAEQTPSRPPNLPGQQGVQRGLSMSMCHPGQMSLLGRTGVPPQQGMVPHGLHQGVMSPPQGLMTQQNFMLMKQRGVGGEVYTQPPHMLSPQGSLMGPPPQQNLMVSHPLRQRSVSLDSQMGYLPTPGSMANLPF
UniProt Q61112: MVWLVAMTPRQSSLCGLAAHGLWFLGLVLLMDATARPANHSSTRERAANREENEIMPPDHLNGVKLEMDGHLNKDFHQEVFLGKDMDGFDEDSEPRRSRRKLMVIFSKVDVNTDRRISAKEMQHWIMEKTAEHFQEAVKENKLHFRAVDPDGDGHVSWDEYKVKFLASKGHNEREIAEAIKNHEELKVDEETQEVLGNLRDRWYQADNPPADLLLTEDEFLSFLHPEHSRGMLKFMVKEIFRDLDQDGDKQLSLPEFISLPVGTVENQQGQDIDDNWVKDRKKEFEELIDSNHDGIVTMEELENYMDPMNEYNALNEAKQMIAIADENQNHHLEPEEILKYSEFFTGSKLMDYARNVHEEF
UniProt Q61420: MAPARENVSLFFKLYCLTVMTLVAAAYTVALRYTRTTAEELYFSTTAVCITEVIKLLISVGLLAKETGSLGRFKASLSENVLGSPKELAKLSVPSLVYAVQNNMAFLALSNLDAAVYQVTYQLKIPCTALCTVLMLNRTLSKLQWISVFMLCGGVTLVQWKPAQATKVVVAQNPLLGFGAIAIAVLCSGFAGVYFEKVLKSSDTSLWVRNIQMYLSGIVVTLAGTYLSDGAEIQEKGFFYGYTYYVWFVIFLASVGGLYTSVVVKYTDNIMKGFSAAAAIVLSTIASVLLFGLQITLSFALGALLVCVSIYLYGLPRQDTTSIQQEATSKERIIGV

Compound: CN[C@@H]1C[C@H]2O[C@@](C)([C@@H]1OC)n1c3ccccc3c3c4c(c5c6ccccc6n2c5c31)C(=O)NC4 [staurosporine]
Test: log2 fold change of pooled soluble protein (PISA), ligand vs vehicle (log2 ratio); higher = more thermally stabilized
Conditions: ligand concentration: 20 uM; assay format: PISA pool 52.9/55.5/58.6 C

Target	log2 fold change of pooled soluble protein
UniProt Q61599	0.102
UniProt Q61699	-0.0413
UniProt Q61941	0.0159
UniProt Q60766	-0.0251
UniProt Q61687	0.0108
UniProt Q61578	-0.188
UniProt Q61510	-0.0554
UniProt Q61335	-0.122
UniProt Q62203	0.313
UniProt Q62504	0.0477
UniProt Q61586	-0.0204
UniProt Q61595	-0.014
UniProt Q6NVE8	0.0185
UniProt Q61249	0.0466
UniProt Q60770	-0.232
UniProt Q61334	-0.113
UniProt Q60974	-0.0785
UniProt Q6GQS1	0.123

Reformatted with bars between the fields: part of the list above.
Target | log2 fold change of pooled soluble protein
UniProt Q61335 | -0.122
UniProt Q62203 | 0.313
UniProt Q62504 | 0.0477
UniProt Q61586 | -0.0204
UniProt Q61595 | -0.014
UniProt Q6NVE8 | 0.0185
UniProt Q61249 | 0.0466
UniProt Q60770 | -0.232

The list goes on:

Target	log2 fold change of pooled soluble protein
UniProt Q61144	0.347
UniProt Q68FD5	-0.0409
UniProt Q64345	0.141
UniProt Q62318	-0.00392
UniProt Q62422	0.268
UniProt Q64521	0.0118
UniProt Q61093	-0.236
UniProt Q64685	-0.00758
UniProt Q64176	0.0322
UniProt Q62425	-0.0295
UniProt Q67FY2	0.0569
UniProt Q5XKN4	0.224
UniProt Q6DYE8	-0.608
UniProt Q64458	0.0508
UniProt Q61112	0.0232
UniProt Q61624	-0.0558
UniProt Q62351	0.0198
UniProt Q61420	-0.0959
